Results reported in PubChem BioAssay AID504467 (National Center for Advancing Translational Sciences (NCATS), 2011).
Hit rate of the full screen: of about 330,000 compounds, about 7,700 (2.3%) were called active. Inconclusive results, whose numbers are uncertain, are shown with a selection of clear calls. Calls come from the whole dose curve; as a rule, active = well fitted inhibition curve with a large enough effect; inconclusive = small, poorly fitted or top-dose-only effect, or effect the other way; inactive = flat fitted curve, though single readings scatter. Where the call is inconclusive, the potency comes from a doubtful curve fit.

assay: qHTS screen for small molecules that inhibit ELG1-dependent DNA repair in human embryonic kidney (HEK293T) cells expressing luciferase-tagged ELG1; conditions: HEK293T ELG1-luciferase reporter, luminescence, 16 h, DNA damage induced by 5-fluorouridine; series mostly up to 46.1 µM; note: nearly all actives have a fitted effect of over 55% in size
Procedure, shortened: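 5-Fluorouridine DNA damage + compound/DMSO, 2,000 cells/well, 16 h, 37 °C/5% CO2. ONE-Glo, 30 min RT, luminescence. Readout = decrease in reporter signal.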
Potency is the fitted concentration of half-maximal effect.

**Q.** With `CCN1C(=O)c2cccc3c(S(=O)(=O)N4CCC(C)CC4)ccc1c23` as the compound, how does the Potency read?
**A.** inconclusive: 17.8 µM [activator, partial curve, poor fit]

**Q.** Which Potency does the source give for `COc1ccc(C(=O)Oc2cc(C)c(CN3CCOCC3)cc2C)cc1OC` here?
**A.** inactive

**Q.** Which Potency does the source give for `O=C(Nc1ccc2c(c1)OCO2)C1CCN(S(=O)(=O)c2ccc3c(c2)OCCO3)CC1` here?
**A.** inconclusive: 20.6 µM [inhibitor, partial curve]

**Q.** Which Potency does the source give for `O=C(CSc1ccc(Cl)cc1)N/N=C/c1ccc([N+](=O)[O-])o1` here?
**A.** inactive

**Q.** With `CCn1c(NCc2ccc(N(C)C)cc2)nc2ccccc21` as the compound, how does the Potency read?
**A.** inconclusive: 20.6 µM [activator, single point]

**Q.** Which Potency does the source give for `COc1ccc(NC(C)=O)cc1NC(=O)CN1CCN(S(=O)(=O)c2ccc(C(C)C)cc2)CC1` here?
**A.** inconclusive: 1.3 µM [activator, full curve, poor fit]

**Q.** With `O=C(c1nc2ccccc2[nH]1)c1ccccc1[N+](=O)[O-]` as the compound, how does the Potency read?
**A.** inconclusive: 16.4 µM [activator, partial curve]

**Q.** For `OCC1(CCCc2ccccc2)CCN(Cc2cnc(N3CCOCC3)s2)CC1`, which Potency is on record?
**A.** inconclusive: 3.66 µM [inhibitor, full curve]

**Q.** Which Potency does the source give for `CC(C(=O)NCc1ccc2c(c1)OCO2)N1c2cccc3cccc(c23)S1(=O)=O` (configuration not stated) here?
**A.** inconclusive: 23.1 µM [inhibitor, single point]

**Q.** For `Cc1ccc(NC(=O)CN2C(=O)N/C(=C/c3ccc4c(c3)OCCO4)C2=O)cc1`, which Potency is on record?
**A.** inconclusive: 13 µM [activator, partial curve]

**Q.** For `S=C(NCC1(c2ccccc2)CCCC1)Nc1ccccc1`, which Potency is on record?
**A.** inconclusive: 16.4 µM [inhibitor, partial curve, poor fit]

**Q.** Which Potency does the source give for `O=C(Nc1ccccc1)c1nc[nH]c1C(=O)NCc1ccccc1` here?
**A.** inconclusive: 16.4 µM [inhibitor, single point]

**Q.** With `Cc1ccc(CS(=O)(=O)c2cn(CC(=O)N3CCOCC3)c3ccccc23)cc1` as the compound, how does the Potency read?
**A.** inconclusive: 20.6 µM [activator, single point]

**Q.** With `Cc1ccc2c(c1)N(CC(=O)OC(CC(C)C)C(=O)NC1CCCC1)C(=O)CO2` (configuration not stated) as the compound, how does the Potency read?
**A.** active: 20.6 µM

**Q.** With `CC[C@@H](C)C(NC(=O)OC(C)(C)C)c1cn([C@@H](CCC(=O)OC(C)(C)C)C(=O)N2CCN(C(=O)OC(C)(C)C)CC2)nn1` (some centres not stated) as the compound, how does the Potency read?
**A.** inconclusive: 20.6 µM [inhibitor, single point]

**Q.** Which Potency does the source give for `COc1ccccc1N1CCN(C(=O)C2CCCN(S(=O)(=O)c3ccc4c(c3)oc(=O)n4C)C2)CC1` (configuration not stated) here?
**A.** inconclusive: 29.1 µM [inhibitor, single point]

**Q.** For `N#C/C(=N\Nc1ccc(Cl)c(Cl)c1)C(=O)C1CC1`, which Potency is on record?
**A.** inconclusive: 29.1 µM [activator, single point]

**Q.** Which Potency does the source give for `COc1ccccc1N1CCN(S(=O)(=O)CCNC(=O)Cc2ccc(F)cc2)CC1` here?
**A.** inconclusive: 25.9 µM [inhibitor, single point]

**Q.** Which Potency does the source give for `N/C(=N\OC(=O)C12CC3CC(CC(C3)C1)C2)c1ccncc1` here?
**A.** inconclusive: 20.6 µM [activator, single point]

**Q.** With `O=C(NN1C(=O)c2ccccc2NC1c1ccc([N+](=O)[O-])o1)c1ccc(Br)cc1` (configuration not stated) as the compound, how does the Potency read?
**A.** inactive

**Q.** Which Potency does the source give for `Cc1cc(C(=O)NC2CCCCC2)c(C)n1-c1ccc(F)cc1` here?
**A.** inconclusive: 4.61 µM [activator, partial curve]

**Q.** For `Cc1nn(CCCC(=O)Nc2cc(Oc3ccc(F)cc3)cc([N+](=O)[O-])c2)c(C)c1[N+](=O)[O-]`, which Potency is on record?
**A.** inconclusive: 23.1 µM [inhibitor, single point]

**Q.** Which Potency does the source give for `COc1cccc2sc(Nc3nc(C)c(C(C)=O)s3)nc12` here?
**A.** inconclusive: 3.26 µM [activator, partial curve]

**Q.** With `Cc1ccc2c(c1)Oc1ccc(NC(=O)CCCl)cc1C(=O)N2` as the compound, how does the Potency read?
**A.** inconclusive: 25.9 µM [inhibitor, single point]

**Q.** With `O=C(NCc1ccccc1Cl)c1ccc(-c2ccccc2)cc1` as the compound, how does the Potency read?
**A.** inconclusive: 13 µM [activator, partial curve]

**Q.** With `CCOC(=O)c1c(C)oc2ccc(OCc3cc(C(=O)OC)oc3C)cc12` as the compound, how does the Potency read?
**A.** inactive

**Q.** For `Cc1ccc(C(=O)N(C)CCOc2ccccc2)cc1S(=O)(=O)N1CCOCC1`, which Potency is on record?
**A.** inactive

**Q.** Which Potency does the source give for `Cc1ccc(NC(=O)c2nsc(Cl)c2Cl)cc1` here?
**A.** inconclusive: 7.3 µM [activator, partial curve]

**Q.** For `CCCc1ccc2oc(C(=O)N3CCC(COC)C3)c(C)c2c1` (configuration not stated), which Potency is on record?
**A.** inconclusive: 13 µM [activator, partial curve]

**Q.** For `O=C(CCCCCNC(=O)N1CCn2c1nc1ccccc12)N[C@@H](Cc1ccccc1)C(=O)O`, which Potency is on record?
**A.** inactive

**Q.** For `O=C1S/C(=C\C=C\c2ccco2)C(=O)N1c1ccc(O)cc1`, which Potency is on record?
**A.** inconclusive: 10.3 µM [activator, partial curve]

**Q.** For `Cc1ccc(N2CCN(C(=S)Nc3ccccc3C)CC2)cc1`, which Potency is on record?
**A.** inconclusive: 0.112 µM [activator, partial curve, poor fit]

**Q.** For `CN1CCCC(OC(=O)c2ccccc2Br)C1` (configuration not stated), which Potency is on record?
**A.** inconclusive: 0.231 µM [activator, single point]

**Q.** For `O=C(Nc1ccc2c(c1)OCCO2)N1CCN(c2ccc(F)cc2)CC1`, which Potency is on record?
**A.** inconclusive: 20.6 µM [inhibitor, single point]

**Q.** Which Potency does the source give for `O=C(N1CCN(c2ccccc2)CC1)C12CC3CC(CC(C3)C1)C2` here?
**A.** inactive

**Q.** Which Potency does the source give for `COc1ccc(OC)c2c(=O)cc(C(=O)O)[nH]c12` here?
**A.** inactive

**Q.** With `COC(=O)c1cccc(COC(=O)c2ccc(CS(=O)(=O)c3ccc(C)cc3)cc2)c1` as the compound, how does the Potency read?
**A.** inconclusive: 29.1 µM [inhibitor, single point]

**Q.** With `COCCCNc1oc(COc2ccc(Cl)cc2Cl)nc1C#N` as the compound, how does the Potency read?
**A.** inconclusive: 11.6 µM [inhibitor, partial curve]

**Q.** Which Potency does the source give for `CCN=C1S/C(=C\c2sccc2C)C(=O)N1CC` here?
**A.** inconclusive: 11.6 µM [activator, partial curve]

**Q.** With `CC(=O)NCCC(=O)Nc1nc(-c2cccs2)c(-c2cccs2)s1` as the compound, how does the Potency read?
**A.** inconclusive: 10.3 µM [activator, partial curve, poor fit]

**Q.** For `CCOC(=O)[C@H]1[C@H]2COc3ccc(Br)cc3[C@@H]2N2C(=O)c3ccc(Cl)cc3NC(=O)[C@@]12C`, which Potency is on record?
**A.** inactive

**Q.** Which Potency does the source give for `CCn1c(COc2ccccc2)nc2ccccc21` here?
**A.** inconclusive: 23.1 µM [activator, single point]

**Q.** For `CN1CCCC1CCNC1C2CC3CC(C2)CC1C3` (configuration not stated), which Potency is on record?
**A.** inactive

**Q.** For `O=C(O)CCC(=O)N1CCN(c2nc(-c3ccccc3)c3ccccc3n2)CC1`, which Potency is on record?
**A.** inactive

**Q.** With `C[C@@H]1CN([C@@H](C)CO)C(=O)c2cccc(NC(=O)C3CCOCC3)c2O[C@H]1CN(C)S(=O)(=O)c1ccc(Cl)cc1` as the compound, how does the Potency read?
**A.** inconclusive: 29.1 µM [activator, partial curve, poor fit]

**Q.** For `Cc1ccc(S(=O)(=O)CCC(=O)N2CCc3ccccc32)cc1`, which Potency is on record?
**A.** inconclusive: 29.1 µM [activator, partial curve, poor fit]

**Q.** With `CSc1ncccc1C(=O)OCC(=O)c1ccc(C)s1` as the compound, how does the Potency read?
**A.** inactive

**Q.** With `Cc1ccc(S(=O)(=O)N(C)CC(=O)Nc2cccc(C)n2)cc1` as the compound, how does the Potency read?
**A.** inactive

**Q.** Which Potency does the source give for `O=C(NNC(=O)c1cc(Cl)ccc1O)c1cccs1` here?
**A.** inconclusive: 13 µM [activator, partial curve]

**Q.** With `CCCn1c(N)c(N(CCOC)C(=O)CSc2ccccc2)c(=O)[nH]c1=O` as the compound, how does the Potency read?
**A.** inconclusive: 9.2 µM [activator, partial curve, poor fit]

**Q.** With `COc1ccc(-c2c(C)sc(NC(=O)c3ccnn3C)c2C#N)cc1` as the compound, how does the Potency read?
**A.** inactive

**Q.** With `C=CCOc1ccc(/C=C/C(=O)OCC(=O)NCC2CCCO2)cc1` (configuration not stated) as the compound, how does the Potency read?
**A.** inconclusive: 16.4 µM [activator, single point]

**Q.** Which Potency does the source give for `COC(=O)c1cc(NC(=O)c2ccc(C)cc2)c(=O)oc1C` here?
**A.** inconclusive: 29.1 µM [activator, single point]

**Q.** With `NNC(=O)c1csc(-c2ccccc2)n1` as the compound, how does the Potency read?
**A.** inconclusive: 23.1 µM [activator, single point]

**Q.** With `Clc1ccc(OCc2nc(-c3ccncc3)no2)cc1` as the compound, how does the Potency read?
**A.** inconclusive: 9.2 µM [activator, partial curve]

**Q.** For `Clc1cccc2sc(N3CCN(c4ccccc4)CC3)nc12`, which Potency is on record?
**A.** inactive

**Q.** With `CC1CCC(NC(=O)COc2ccccc2C(N)=O)CC1` (configuration not stated) as the compound, how does the Potency read?
**A.** inconclusive: 20.6 µM [activator, partial curve, poor fit]

**Q.** For `Nc1nnc(SCC(=O)N2CCc3ccccc3C2)s1`, which Potency is on record?
**A.** inactive

**Q.** With `CC(C)CC(NC(=O)C1CCC(C)CC1)C(=O)Nc1ccc2c(c1)OCCO2` (configuration not stated) as the compound, how does the Potency read?
**A.** inconclusive: 20.6 µM [activator, partial curve, poor fit]

**Q.** For `O=C(c1ccc(CNc2c(N3CCCC3)c(=O)c2=O)cc1)N1CC=C(c2ccccc2)CC1`, which Potency is on record?
**A.** inconclusive: 18.3 µM [inhibitor, single point]

**Q.** With `Cn1cccc1/C=N/NC(=O)CSc1nc2ccccc2[nH]1` as the compound, how does the Potency read?
**A.** inactive

**Q.** For `CN1CCC(Oc2ccccc2Sc2ccccc2)CC1`, which Potency is on record?
**A.** inactive

**Q.** Which Potency does the source give for `COc1cc(OC)c(OC)cc1/C=N/NC(=O)CCc1c(C)n[nH]c1C` here?
**A.** inconclusive: 23.1 µM [inhibitor, partial curve]

**Q.** Which Potency does the source give for `CCOc1ccccc1OCCCOc1ccc([N+](=O)[O-])cc1Cl` here?
**A.** inconclusive: 23.1 µM [inhibitor, single point]

**Q.** With `Cc1ccc(S(=O)(=O)Nc2ccc3c(c2)c2c(n3S(=O)(=O)c3ccc(C)cc3)CCCC2=O)cc1` as the compound, how does the Potency read?
**A.** inconclusive: 4.61 µM [inhibitor, full curve]

**Q.** With `Cc1ccc(Nc2nc(N)nc(CSc3nnc(-c4ccncc4)o3)n2)cc1` as the compound, how does the Potency read?
**A.** inactive

**Q.** Which Potency does the source give for `COC(=O)c1cccc(C23CC4(C2)[C@H](CN(C)[C@@H]4c2ccccc2)C3c2ccc(C(F)(F)F)cc2)c1` (some centres not stated) here?
**A.** inconclusive: 29.1 µM [inhibitor, single point]
